From the supplement of paper PMC8728848
The list shows a part of the results.

Legend:
Test in all cases: glycan array binding signal (z-score within array); higher = stronger binding
Settings in all cases: glycan notation: IUPAC condensed, linker removed
Gal3S(b1-4)Glc = biological target: Gal3S(b1-4)Glc
Summary of the method: (§1)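 From the Consortium for Functional Glycomics database, 3228 arrays were curated, keeping only those whose protein sequence was available. Binding is given as a within-array Z-score averaged across arrays sharing a protein sequence and across linkers. Negative Z-scores can be read as non-binding.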

Gal3S(b1-4)Glc6S = biological target: Gal3S(b1-4)Glc6S
Summary of the method: as §1

Gal3S(b1-4)GlcNAc = biological target: Gal3S(b1-4)GlcNAc
Summary of the method: as §1

[1] = biological target: Gal3S(b1-4)[Fuc(a1-3)]Glc6S
Summary of the method: as §1

[2] = biological target: Gal3S(b1-4)[Fuc(a1-3)]GlcNAc
Summary of the method: as §1

[3] = biological target: Gal3S(b1-4)[Fuc(a1-3)]GlcNAc6S
Summary of the method: as §1

Gal3S4S(b1-4)GlcNAc = biological target: Gal3S4S(b1-4)GlcNAc
Summary of the method: as §1

Gal3S6S(b1-4)GlcNAc = biological target: Gal3S6S(b1-4)GlcNAc
Summary of the method: as §1

Gal3S6S(b1-4)GlcNAc6S = biological target: Gal3S6S(b1-4)GlcNAc6S
Summary of the method: as §1

Gal4S(b1-4)GlcNAc = biological target: Gal4S(b1-4)GlcNAc
Summary of the method: as §1

Gal4S6S(b1-4)GlcNAc = biological target: Gal4S6S(b1-4)GlcNAc
Summary of the method: as §1

Gal6P(b1-4)GlcNAc = biological target: Gal6P(b1-4)GlcNAc
Summary of the method: as §1

Gal6S(b1-3)GlcNAc = biological target: Gal6S(b1-3)GlcNAc
Summary of the method: as §1

Gal6S(b1-3)GlcNAc6S = biological target: Gal6S(b1-3)GlcNAc6S
Summary of the method: as §1

Gal6S(b1-4)Glc = biological target: Gal6S(b1-4)Glc
Summary of the method: as §1

Gal6S(b1-4)Glc6S = biological target: Gal6S(b1-4)Glc6S
Summary of the method: as §1

Gal6S(b1-4)GlcNAc = biological target: Gal6S(b1-4)GlcNAc
Summary of the method: as §1

Gal6S(b1-4)GlcNAc6S = biological target: Gal6S(b1-4)GlcNAc6S
Summary of the method: as §1

GalNAc(a1-3)Gal = biological target: GalNAc(a1-3)Gal
Summary of the method: as §1

GalNAc(a1-3)GalNAc = biological target: GalNAc(a1-3)GalNAc
Summary of the method: as §1

[4] = biological target: GalNAc(a1-3)GalNAc(a1-3)Gal(a1-4)Gal(b1-4)GlcNAc
Summary of the method: as §1

[5] = biological target: GalNAc(a1-3)GalNAc(b1-3)Gal(a1-4)Gal(b1-4)Glc
Summary of the method: as §1

GalNAc(b1-3)Gal = biological target: GalNAc(b1-3)Gal
Summary of the method: as §1

[6] = biological target: GalNAc(b1-3)Gal(a1-4)Gal(b1-4)GlcNAc
Summary of the method: as §1

[7] = biological target: GalNAc(b1-3)Gal(a1-4)Gal(b1-4)GlcNAc(b1-3)Gal(b1-4)Glc
Summary of the method: as §1

[8] = biological target: GalNAc(b1-3)Gal(a1-6)Gal(b1-4)Glc
Summary of the method: as §1

GalNAc(b1-3)GalNAc = biological target: GalNAc(b1-3)GalNAc
Summary of the method: as §1

GalNAc(b1-3)GlcNAc = biological target: GalNAc(b1-3)GlcNAc
Summary of the method: as §1

GalNAc(b1-4)Gal(b1-4)Glc = biological target: GalNAc(b1-4)Gal(b1-4)Glc
Summary of the method: as §1

GalNAc(b1-4)GlcNAc = biological target: GalNAc(b1-4)GlcNAc
Summary of the method: as §1

[9] = biological target: GalNAc(b1-4)GlcNAc(b1-2)Man
Summary of the method: as §1

[10] = biological target: GalNAc(b1-4)GlcNAc(b1-2)Man(a1-3)[GalNAc(b1-4)GlcNAc(b1-2)Man(a1-6)]Man(b1-4)GlcNAc(b1-4)GlcNAc
Summary of the method: as §1

[11] = biological target: GalNAc(b1-4)GlcNAc(b1-3)GalNAc(b1-4)GlcNAc
Summary of the method: as §1

GalNAc(b1-4)GlcNAc6S = biological target: GalNAc(b1-4)GlcNAc6S
Summary of the method: as §1

GalNAc(b1-6)GalNAc = biological target: GalNAc(b1-6)GalNAc
Summary of the method: as §1

GalNAc3S(b1-4)GlcNAc = biological target: GalNAc3S(b1-4)GlcNAc
Summary of the method: as §1

GalNAc3S(b1-4)GlcNAc3S = biological target: GalNAc3S(b1-4)GlcNAc3S
Summary of the method: as §1

B1: AntigenI/IIA3VP1 (Streptococcus mutans), C9E3B4 (protein)
chain: AANEADYQAKLTAYQTELARVQKANADAKAAYEAAVAANNAANAALTAENTAIKKRNADAKADYEAKLAKYQADLAKYQKDLADYPVKLKAYEDEQASIKAALAELEKHKNEDGNLTEPSAQNLVYDLEPNANLSLTTDGKFLKASAVDDAFSKSTSKAKYDQKILQLDDLDITNLEQSNDVASSMELYGNFGDKAGWSTTVSNNSQVKWGSVLLERGQSATATYTNLQNSYYNGKKISKIVYKYTVDPKSKFQGQKVWLGIFTDPTLGVFASAYTGQVEKNTSIFIKNEFTFYDEDGKPINFDNALLSVASLNREHNSIEMAKDYSGKFVKISGSSIGEKNGMIYATDTLNFKQGEGGSRWTMYKNSQAGSGWDSSDAPNSWYGAGAIKMSGPNNYVTVGATSATNVMPVSDMPVVPGKDNTDGKKPNIWYSLNGKIRAVNVPKVTKEKPTPPVKPTAPTKPTYETEKPLKPAPVAPNYEKEPTPPTRLEHHHHHH
- glycan array binding signal (z-score) (Gal3S(b1-4)Glc): 0.494
- glycan array binding signal (z-score) (Gal3S(b1-4)Glc6S): -0.822
- glycan array binding signal (z-score) (Gal3S(b1-4)GlcNAc): 0.444
- glycan array binding signal (z-score) [1]: 3.68
- glycan array binding signal (z-score) [2]: -0.048
- glycan array binding signal (z-score) [3]: 0.489
- glycan array binding signal (z-score) (Gal3S4S(b1-4)GlcNAc): -0.165
- glycan array binding signal (z-score) (Gal3S6S(b1-4)GlcNAc): 0.603
- glycan array binding signal (z-score) (Gal3S6S(b1-4)GlcNAc6S): 0.436
- glycan array binding signal (z-score) (Gal4S(b1-4)GlcNAc): -0.506
- glycan array binding signal (z-score) (Gal4S6S(b1-4)GlcNAc): -1.14
- glycan array binding signal (z-score) (Gal6P(b1-4)GlcNAc): -1.28
- glycan array binding signal (z-score) (Gal6S(b1-3)GlcNAc): -0.029
- glycan array binding signal (z-score) (Gal6S(b1-3)GlcNAc6S): 0.363
- glycan array binding signal (z-score) (Gal6S(b1-4)Glc): -0.11
- glycan array binding signal (z-score) (Gal6S(b1-4)Glc6S): 1.01
- glycan array binding signal (z-score) (Gal6S(b1-4)GlcNAc): 0.782
- glycan array binding signal (z-score) (Gal6S(b1-4)GlcNAc6S): 0.523
- glycan array binding signal (z-score) (GalNAc(a1-3)Gal): 0.001
- glycan array binding signal (z-score) (GalNAc(a1-3)GalNAc): 0.327
- glycan array binding signal (z-score) [4]: -0.516
- glycan array binding signal (z-score) [5]: -0.224
- glycan array binding signal (z-score) (GalNAc(b1-3)Gal): -0.411
- glycan array binding signal (z-score) [6]: 0.73
- glycan array binding signal (z-score) [7]: -0.843
- glycan array binding signal (z-score) [8]: -1.06
- glycan array binding signal (z-score) (GalNAc(b1-3)GalNAc): 1.37
- glycan array binding signal (z-score) (GalNAc(b1-3)GlcNAc): -0.475
- glycan array binding signal (z-score) (GalNAc(b1-4)Gal(b1-4)Glc): -0.825
- glycan array binding signal (z-score) (GalNAc(b1-4)GlcNAc): 0.185
- glycan array binding signal (z-score) [9]: -0.797
- glycan array binding signal (z-score) [10]: -0.868
- glycan array binding signal (z-score) [11]: -0.774
- glycan array binding signal (z-score) (GalNAc(b1-4)GlcNAc6S): -1.3
- glycan array binding signal (z-score) (GalNAc(b1-6)GalNAc): -0.455
- glycan array binding signal (z-score) (GalNAc3S(b1-4)GlcNAc): -1.46
- glycan array binding signal (z-score) (GalNAc3S(b1-4)GlcNAc3S): -0.649
